# According to the supplement of paper PMC8732350:
# “And” between values parts separate entries of the source, which are not always exact repeats. Equal values may be shown once. Where a name gives a salt, the structure may show the parent alone. ± gives the standard deviation of the averaged measurements. The list shows a part of the results. Single values are uncertain here, since repeats match poorly.
# System: A549
# Assay: surface PD-L1 immunofluorescence intensity relative to IFN-gamma-only control (ratio); higher = more PD-L1 expression
# Details: 10 µM; exposure time 24 h; IFN-gamma 100 ng/mL
row,SMILES,surface PD-L1 immunofluorescence intensity
1,COc1ccccc1N1CCN(CCCCNC(=O)c2ccc(-c3ccc(C(C)=O)cc3)cc2)CC1,0.899
2,CC(C)NC[C@@H](O)COc1ccc(CC(N)=O)cc1 [(R)-(+)-Atenolol],0.979
3,NS(=O)(=O)c1cc2c(cc1C(F)(F)F)NCNS2(=O)=O [Hydroflumethiazide],0.895
4,OC[C@H]1O[C@@H](n2cnc3c(N[C@H]4CCC[C@@H]4O)ncnc32)[C@H](O)[C@@H]1O,0.977
5,COC1(C2=NCCN2)COc2ccccc2O1 (stereo not drawn),1
6,O=C(/C=C/c1ccc(O)cc1)c1ccc(O)cc1O [Isoliquiritigenin],0.985
7,Cc1c(NC(=O)c2cccnc2)c(=O)n(-c2ccccc2)n1C [Nifenazone],1.06
8,CS(=O)(=O)OCCCCOS(C)(=O)=O [Busulfan],0.958
9,OCc1c[nH]c2ccccc12 [Indole-3-carbinol],1.04
10,COC(=O)C1=C(C)NC(C)=C([N+](=O)[O-])[C@H]1c1ccccc1C(F)(F)F,1.06
11,O=C(Nc1ccccc1)C12CC1C(=NO)c1ccccc1O2 (stereo not drawn),1.02
12,CC(C)(CO)c1cc2cc(NC(=O)C3(c4ccc5c(c4)OC(F)(F)O5)CC3)c(F)cc2n1C[C@@H](O)CO,1.01
13,Cc1cnc(-c2cc(N3CCN(C(=O)CCS(C)(=O)=O)CC3)ncc2Cl)c(C)c1,1
14,CC[C@@H]1C(=O)OC[C@@H]1Cc1cncn1C [Pilocarpine hydrochloride],1.06
15,CC[C@@H]1C(=O)OC[C@@H]1Cc1cncn1C [Pilocarpine nitrate],0.998
16,CN1CCc2c(c3ccccc3n2Cc2ccc(C(=O)NO)cc2)C1 [Tubastatin A HCl],0.948
17,CC(=N)NCCCC[C@H](N)C(=O)O [L-NIL hydrochloride],0.96
18,COc1cc2nccc(Oc3ccc(NC(=O)NC4CC4)c(Cl)c3)c2cc1C(N)=O [E7080 (Lenvatinib)],0.9946 ± 0.0088
19,CCC(C)(Oc1ccc(C2(c3ccc(OC(C)(CC)C(=O)O)cc3)CCCCC2)cc1)C(=O)O (stereo not drawn) [Clinofibrate],0.991
20,C[C@@H](O[C@H]1OCCN(Cc2nn(P(=O)(O)O)c(=O)[nH]2)[C@H]1c1ccc(F)cc1)c1cc(C(F)(F)F)cc(C(F)(F)F)c1 [Fosaprepitant dimeglumine],1.05
21,CCn1c(=O)[nH]c2cc(Cl)c(Cl)cc21,0.937

row,SMILES,surface PD-L1 immunofluorescence intensity
1,CCCn1c(=O)c2[nH]c(C3CCCC3)nc2n(CCC)c1=O,0.986
2,O=C(CCNNC(=O)c1ccncc1)NCc1ccccc1 [Nialamide],1.05
3,N/C(=N\C(=O)c1nc(Cl)c(N)nc1N)NCc1ccccc1 [Benzamil],0.87
4,Cc1nc2ccccn2c(=O)c1CCN1CCC(C(=O)c2ccc(F)cc2)CC1 [Pirenperone],0.818
5,N[C@@H](Cn1ccc(=O)n(Cc2ccccc2C(=O)O)c1=O)C(=O)O,0.959
6,O=C1[C@@H]2[C@H]3CC[C@H](C3)[C@@H]2C(=O)N1C[C@@H]1CCCC[C@H]1CN1CCN(c2nsc3ccccc23)CC1 [Lurasidone HCl],0.877
7,CCCCC[C@H](O)/C=C/[C@H]1[C@H](O)CC(=O)[C@@H]1C/C=C\CCCC(=O)O [Prostaglandin E2],0.933
8,Cn1cnc2c(F)c(Nc3ccc(Br)cc3F)c(C(=O)NOCCO)cc21,1.01
9,NC(=O)c1cnccn1 [Pyrazinamide],1.09
10,NCCCCCc1c[nH]cn1 [Impentamine dihydrobromide],0.945
11,NC(=O)c1cccc(-c2cccc(OC(=O)NC3CCCCC3)c2)c1,0.981
12,CCCN(CCC)CCc1cccc2c1CC(=O)N2 [Ropinirole HCl],0.986
13,COc1ccc2cc([C@H](C)C(=O)O)ccc2c1 [Naproxen],0.875
14,COc1ccc2cc([C@H](C)C(=O)O)ccc2c1 [Naproxen (Aleve)],1.08
15,COc1ccc2cc([C@H](C)C(=O)O)ccc2c1 [Naproxen sodium],0.959
16,N#Cc1cc(CN2CCC(Nc3ncnc4sc(Cl)cc34)CC2)ccc1F,1.02
17,C[C@]12CCC(=O)C=C1[C@@H]1C[C@@H]1[C@H]1[C@@H]3[C@@H]4C[C@@H]4[C@@]4(CCC(=O)O4)[C@@]3(C)CC[C@@H]12 [Drospirenone],1.02
18,Nc1cc(N2CCCCC2)nc(N)[n+]1[O-] [Minoxidil],0.953 ± 0.097
19,CS(=O)(=O)Nc1c(O)ccc2c1CCCC2C1=NCCN1 (stereo not drawn),1.05
20,CCCCn1c(=O)c2[nH]c(C34CC5CC(CC3C5)C4)nc2n(CCCO)c1=O,1.1
21,CC(C)C[C@H](NC(=O)N1CCCCCC1)C(=O)N[C@H](Cc1cn(C)c2ccccc12)C(=O)N[C@H](Cc1ccccn1)C(=O)O,1.01

# No new results follow: an excerpt of the list.
row,SMILES,surface PD-L1 immunofluorescence intensity
11,NC(=O)c1cccc(-c2cccc(OC(=O)NC3CCCCC3)c2)c1,0.981
12,CCCN(CCC)CCc1cccc2c1CC(=O)N2 [Ropinirole HCl],0.986
13,COc1ccc2cc([C@H](C)C(=O)O)ccc2c1 [Naproxen],0.875

# Some values from the list:
# Value for O=C1[C@@H]2[C@H]3CC[C@H](C3)[C@@H]2C(=O)N1C[C@@H]1CCCC[C@H]1CN1CCN(c2nsc3ccccc23)CC1 [Lurasidone HCl] under surface PD-L1 immunofluorescence intensity: 0.877
# Value for O=C(CCNNC(=O)c1ccncc1)NCc1ccccc1 [Nialamide] under surface PD-L1 immunofluorescence intensity: 1.05

# Next part.

row,SMILES,surface PD-L1 immunofluorescence intensity
1,CC1=C(/C=C/C(C)=C/C=C/C(C)=C\CO)C(C)(C)CCC1 [13-cis-Retinol],0.996
2,OCCn1cc(-c2cnc3nnn(Cc4ccc5ncccc5c4)c3n2)cn1,0.988
3,CC1=C(/C=C/C(C)=C/C=C/C(C)=C/CO)C(C)(C)CCC1 [all-trans-Retinol],1
4,O=C(O)c1ccccc1OP(=O)(O)O [Fosfosal],0.966
5,C/C=C(/C(=C/C)c1ccc(O)cc1)c1ccc(O)cc1 [Dienestrol],0.886
6,Cc1ncc([N+](=O)[O-])n1CC(C)O (stereo not drawn) [Secnidazole],1.06
7,O=C(Nc1ccc(S(=O)(=O)Nc2ccccc2Cl)c(Cl)c1)c1ccccn1,0.979
8,Oc1ccc(-c2nc(-c3ccc(F)cc3)c(-c3ccncc3)[nH]2)cc1,1.14 and 1.01
9,CCC(NC(C)C)C(O)c1ccc(O)c2[nH]c(=O)ccc12 (stereo not drawn) [Procaterol hydrochloride],0.927
10,CCOc1cc(C(=O)Nc2ccc(Cl)c(-c3nc4ccccc4[nH]3)c2)cc(OCC)c1OCC,1.15
11,CC1(C)S[C@@H]2[C@H](NC(=O)[C@H](N)c3ccccc3)C(=O)N2[C@H]1C(=O)O [Ampicillin sodium],0.961
12,CC1(C)S[C@@H]2[C@H](NC(=O)[C@H](N)c3ccccc3)C(=O)N2[C@H]1C(=O)O [Ampicillin trihydrate],0.908
13,C=C[C@H]1CN2CC[C@H]1C[C@H]2[C@H](O)c1ccnc2ccc(OC)cc12 [Quinine HCl 2H2O],1.04
14,O=c1n(CCCN2CCN(c3cccc(Cl)c3)CC2)nc2ccccn12 [Trazodone hydrochloride],0.903
15,O=C(O)c1cc(=O)[nH]c(=O)[nH]1 [Orotic acid (6-Carboxyuracil)],1.06
16,O=c1oc2cc(O)ccc2s1 [Tioxolone],0.92
17,COc1cc2ncnc(Nc3cccc(Cl)c3)c2cc1OC [AG-1478 (Tyrphostin AG-1478)],0.993
18,CCCCc1ccc2[nH]c(NC(=O)OC)nc2c1 [Parbendazole],0.999
19,Nc1ncnc2c1ncn2C1OC(COP(=O)(O)O)C(O)C1O (stereo not drawn) [Adenosine 5'-monophosphate monohydrate],1.13
20,COc1cc2ncnc(-n3nc(-c4ccccn4)nc3N)c2cc1OC,0.993
21,CCOC(=O)c1cnc2c(cnn2CC)c1NN=C(C)C [Etazolate hydrochloride],0.975

row,SMILES,surface PD-L1 immunofluorescence intensity
1,C[C@@H]1C[C@H]2[C@@H]3CCC4=CC(=O)C=C[C@]4(C)[C@@]3(Cl)[C@@H](O)C[C@]2(C)[C@@]1(OC(=O)c1ccco1)C(=O)CCl [Mometasone furoate],0.9 ± 0.041
2,CN1CCCN(C(c2ccccc2)c2ccc(Cl)cc2)CC1 (stereo not drawn) [Homochlorcyclizine dihydrochloride],0.92
3,O=C(O)[C@H](CC(=O)N1C[C@H]2CCCC[C@H]2C1)Cc1ccccc1 [Mitiglinide calcium],1.03
4,C[C@]12CCC3=C4CCC(=O)C=C4CC[C@H]3[C@@H]1CC[C@@]2(O)CC#N [Dienogest],1.03
5,O=C(O)c1ccccc1Nc1cccc2c1C(=O)c1cccc(Nc3ccccc3C(=O)O)c1C2=O,0.839
6,NC(=O)c1ccc(I)c([N+](=O)[O-])c1 [Iniparib (BSI-201)],1.06
7,O=C(O)c1cc(/N=N/c2ccc(S(=O)(=O)Nc3ccccn3)cc2)ccc1O [Sulfasalazine],1.05
8,C=C1c2cccc(O)c2C(O)=C2C(=O)[C@]3(O)C(O)=C(C(N)=O)C(=O)[C@@H](N(C)C)[C@@H]3[C@@H](O)[C@H]12 [Methacycline HCl (Physiomycine)],1.06
9,CC1CCN=C(N)S1 (stereo not drawn) [AMT hydrochloride],1.03
10,N#C/C(=C\c1ccc(O)c(O)c1)C(=O)NCCCc1ccccc1,0.989
11,CN/C(=N\CCSCc1nc[nH]c1C)NC#N [Cimetidine],0.951 ± 0.08
12,CCc1cccc(CC)c1NC(=O)CN(CC(=O)O)CC(=O)O [Etifenin],1.05
13,C[C@@H](O[C@H]1OCCN(Cc2n[nH]c(=O)[nH]2)[C@H]1c1ccc(F)cc1)c1cc(C(F)(F)F)cc(C(F)(F)F)c1 [Aprepitant],1.09
14,C[C@@H](O[C@H]1OCCN(Cc2n[nH]c(=O)[nH]2)[C@H]1c1ccc(F)cc1)c1cc(C(F)(F)F)cc(C(F)(F)F)c1 [Aprepitant (MK-0869)],1.16
15,Cc1cn(-c2cc(NC(=O)c3ccc(C)c(Nc4nccc(-c5cccnc5)n4)c3)cc(C(F)(F)F)c2)cn1 [Nilotinib (AMN-107)],0.984
16,NC(=O)c1ccc(-c2nc(-c3ccccn3)c(-c3ccc4c(c3)OCO4)[nH]2)cc1,0.951
17,CCCNC(=O)Nc1ccc(Oc2ncnc3cc(OC)c(OC)cc23)cc1Cl,1.06
18,"O=C(O)c1cc(=O)c2c(Cl)cc(Cl)cc2[nH]1 [5,7-Dichlorokynurenic acid]",1.1
19,CN(C)C(=O)C(=O)c1cn(C)c2cc(Cl)c(C(=O)N3CCC(Cc4ccc(F)cc4)CC3)cc12,0.978
20,CCN1C[C@H](C)n2c(c(O)c3c(=O)n(Cc4ccc(F)c(Cl)c4)nc(C(=O)NC)c32)C1=O,1.09
